Assay results taken from the supplement of paper PMC8728848.
The other results are listed elsewhere or left out.

Legend:
Assay in all cases: glycan array binding signal (z-score within array); higher = stronger binding
Conditions in all cases: glycan notation: IUPAC condensed, linker removed
Gal(a1-6)Glc = target: Gal(a1-6)Glc
In short: (§1)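 Negative Z-scores can be read as non-binding. The Z-score is calculated within each array and then averaged across arrays of one protein sequence at different concentrations or buffers and across linkers. Arrays, 3228 in all, were curated from the Consortium for Functional Glycomics database and kept only where the protein sequence was available.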

Gal(b1-2)Gal = target: Gal(b1-2)Gal
In short: as §1

Gal(b1-3)Gal = target: Gal(b1-3)Gal
In short: as §1

Gal(b1-3)Gal(b1-4)GlcNAc = target: Gal(b1-3)Gal(b1-4)GlcNAc
In short: as §1

Gal(b1-3)GalNAc = target: Gal(b1-3)GalNAc
In short: as §1

[1] = target: Gal(b1-3)GalNAc(a1-3)[Fuc(a1-2)]Gal(b1-4)Glc
In short: as §1

[2] = target: Gal(b1-3)GalNAc(a1-3)[Fuc(a1-2)]Gal(b1-4)GlcNAc
In short: as §1

Gal(b1-3)GalNAc(b1-3)Gal = target: Gal(b1-3)GalNAc(b1-3)Gal
In short: as §1

[3] = target: Gal(b1-3)GalNAc(b1-3)Gal(a1-4)Gal(b1-4)Glc
In short: as §1

[4] = target: Gal(b1-3)GalNAc(b1-4)Gal(b1-4)Glc
In short: as §1

[5] = target: Gal(b1-3)GalNAc(b1-4)[Neu5Ac(a2-3)]Gal(b1-4)Glc
In short: as §1

Gal(b1-3)GlcNAc = target: Gal(b1-3)GlcNAc
In short: as §1

[6] = target: Gal(b1-3)GlcNAc(a1-3)Gal(b1-4)GlcNAc
In short: as §1

[7] = target: Gal(b1-3)GlcNAc(a1-6)Gal(b1-4)GlcNAc
In short: as §1

Gal(b1-3)GlcNAc(b1-2)Man = target: Gal(b1-3)GlcNAc(b1-2)Man
In short: as §1

[8] = target: Gal(b1-3)GlcNAc(b1-2)Man(a1-3)[Gal(b1-3)GlcNAc(b1-2)Man(a1-6)]Man(b1-4)GlcNAc(b1-4)GlcNAc
In short: as §1

[9] = target: Gal(b1-3)GlcNAc(b1-2)Man(a1-3)[Gal(b1-3)GlcNAc(b1-2)Man(a1-6)]Man(b1-4)GlcNAc(b1-4)[Fuc(a1-6)]GlcNAc
In short: as §1

[10] = target: Gal(b1-3)GlcNAc(b1-2)Man(a1-3)[GlcNAc(b1-4)][Gal(b1-3)GlcNAc(b1-2)Man(a1-6)]Man(b1-4)GlcNAc(b1-4)GlcNAc
In short: as §1

[11] = target: Gal(b1-3)GlcNAc(b1-2)[Gal(b1-3)GlcNAc(b1-6)]Man(a1-6)[Gal(b1-3)GlcNAc(b1-2)Man(a1-3)]Man(b1-4)GlcNAc(b1-4)GlcNAc
In short: as §1

[12] = target: Gal(b1-3)GlcNAc(b1-3)Gal(b1-3)GlcNAc
In short: as §1

[13] = target: Gal(b1-3)GlcNAc(b1-3)Gal(b1-4)Glc
In short: as §1

[14] = target: Gal(b1-3)GlcNAc(b1-3)Gal(b1-4)GlcNAc
In short: as §1

[15] = target: Gal(b1-3)GlcNAc(b1-3)Gal(b1-4)GlcNAc(b1-2)Man(a1-3)[Gal(b1-3)GlcNAc(b1-3)Gal(b1-4)GlcNAc(b1-2)Man(a1-6)]Man(b1-4)GlcNAc(b1-4)GlcNAc
In short: as §1

[16] = target: Gal(b1-3)GlcNAc(b1-3)Gal(b1-4)GlcNAc(b1-2)[Gal(b1-3)GlcNAc(b1-3)Gal(b1-4)GlcNAc(b1-6)]Man(a1-6)[Gal(b1-3)GlcNAc(b1-3)Gal(b1-4)GlcNAc(b1-2)Man(a1-3)]Man(b1-4)GlcNAc(b1-4)[Fuc(a1-6)]GlcNAc
In short: as §1

[17] = target: Gal(b1-3)GlcNAc(b1-3)Gal(b1-4)GlcNAc(b1-3)Gal(b1-4)GlcNAc(b1-2)[Gal(b1-3)GlcNAc(b1-3)Gal(b1-4)GlcNAc(b1-3)Gal(b1-4)GlcNAc(b1-6)]Man(a1-6)[Gal(b1-3)GlcNAc(b1-3)Gal(b1-4)GlcNAc(b1-3)Gal(b1-4)GlcNAc(b1-2)Man(a1-3)]Man(b1-4)GlcNAc(b1-4)[Fuc(a1-6)]GlcNAc
In short: as §1

[18] = target: Gal(b1-3)GlcNAc(b1-3)Gal(b1-4)GlcNAc(b1-6)[Gal(b1-3)GlcNAc(b1-3)]Gal(b1-4)Glc
In short: as §1

[19] = target: Gal(b1-3)GlcNAc(b1-3)Gal(b1-4)[Fuc(a1-3)]GlcNAc
In short: as §1

[20] = target: Gal(b1-3)GlcNAc(b1-3)Gal(b1-4)[Fuc(a1-3)]GlcNAc(b1-6)[Gal(b1-3)GlcNAc(b1-3)]Gal(b1-4)Glc
In short: as §1

[21] = target: Gal(b1-3)GlcNAc(b1-3)GalNAc
In short: as §1

[22] = target: Gal(b1-3)GlcNAc(b1-6)Gal(b1-4)GlcNAc
In short: as §1

[23] = target: Gal(b1-3)GlcNAc(b1-6)GalNAc
In short: as §1

[24] = target: Gal(b1-3)GlcNAc(b1-6)[Gal(b1-3)]GalNAc
In short: as §1

Gal(b1-3)GlcNAc6S = target: Gal(b1-3)GlcNAc6S
In short: as §1

[25] = target: Gal(b1-3)[Fuc(a1-4)]GlcNAc
In short: as §1

[26] = target: Gal(b1-3)[Fuc(a1-4)]GlcNAc(b1-2)Man
In short: as §1

[27] = target: Gal(b1-3)[Fuc(a1-4)]GlcNAc(b1-2)Man(a1-3)[Gal(b1-3)[Fuc(a1-4)]GlcNAc(b1-2)Man(a1-6)]Man(b1-4)GlcNAc(b1-4)[Fuc(a1-6)]GlcNAc
In short: as §1

[28] = target: Gal(b1-3)[Fuc(a1-4)]GlcNAc(b1-3)Gal(b1-3)[Fuc(a1-4)]GlcNAc
In short: as §1

[29] = target: Gal(b1-3)[Fuc(a1-4)]GlcNAc(b1-3)Gal(b1-4)[Fuc(a1-3)]GlcNAc
In short: as §1

[30] = target: Gal(b1-3)[Fuc(a1-4)]GlcNAc(b1-6)GalNAc
In short: as §1

[31] = target: Gal(b1-3)[GlcNAc(b1-6)]GalNAc
In short: as §1

[32] = target: Gal(b1-3)[Neu5Ac(a2-6)]GalNAc
In short: as §1

[33] = target: Gal(b1-3)[Neu5Ac(a2-6)]GlcNAc(b1-4)Gal(b1-4)Glc
In short: as §1

[34] = target: Gal(b1-3)[Neu5Ac(b2-6)]GalNAc
In short: as §1

Gal(b1-4)Gal = target: Gal(b1-4)Gal
In short: as §1

[35] = target: Gal(b1-4)GalNAc(a1-3)[Fuc(a1-2)]Gal(b1-4)GlcNAc
In short: as §1

B1: AT5G17240(42) (Arabidopsis thaliana), Q6NQJ8 (protein)
chain: MDLEHQTMETFLRWAAEIGISDSIDSSRFRDSCLGHSLSVSDFPDAGGRGLGAARELKKGELVLKVPRKALMTTESIIAKDLKLSDAVNLHNSLSSTQILSVCLLYEMSKEKKSFWYPYLFHIPRDYDLLATFGNFEKQALQVEDAVWATEKATAKCQSEWKEAGSLMKELELKPKFRSFQAWLWASATISSRTLHVPWDSAGCLCPVGDLFNYDAPGDYSNTPQGPESANNVEEAGLVVETHSERLTDGGFEEDVNAYCLYARRNYQLGEQVLLCYGTYTNLELLEHYGFMLEENSNDKVFIPLETSLFSLASSWPKDSLYIHQDGKLSFALISTLRLWLIPQSQRDKSVMRLVYAGSQISVKNEILVMKWMSEKCGSVLRDLPTSVTEDTVLLHNIDKLQDPELRLEQKETEAFGSEVRAFLDANCLWDVTVLSGKPIEFSRKTSRMLSKWRWSVQWRLSYKRTLADCISYCNEKMNNLLGTQDRLRDL
glycan array binding signal (z-score) (Gal(a1-6)Glc): -0.436
glycan array binding signal (z-score) (Gal(b1-2)Gal): -0.694
glycan array binding signal (z-score) (Gal(b1-3)Gal): -0.268
glycan array binding signal (z-score) (Gal(b1-3)Gal(b1-4)GlcNAc): -0.576
glycan array binding signal (z-score) (Gal(b1-3)GalNAc): -0.195
glycan array binding signal (z-score) [1]: -0.14
glycan array binding signal (z-score) [2]: 0.279
glycan array binding signal (z-score) (Gal(b1-3)GalNAc(b1-3)Gal): -0.267
glycan array binding signal (z-score) [3]: -0.12
glycan array binding signal (z-score) [4]: 1.23
glycan array binding signal (z-score) [5]: -0.077
glycan array binding signal (z-score) (Gal(b1-3)GlcNAc): 0.069
glycan array binding signal (z-score) [6]: -0.028
glycan array binding signal (z-score) [7]: 0.002
glycan array binding signal (z-score) (Gal(b1-3)GlcNAc(b1-2)Man): -0.359
glycan array binding signal (z-score) [8]: 0.236
glycan array binding signal (z-score) [9]: -0.545
glycan array binding signal (z-score) [10]: -0.202
glycan array binding signal (z-score) [11]: -0.437
glycan array binding signal (z-score) [12]: -0.484
glycan array binding signal (z-score) [13]: -0.662
glycan array binding signal (z-score) [14]: -0.795
glycan array binding signal (z-score) [15]: -0.165
glycan array binding signal (z-score) [16]: 0.298
glycan array binding signal (z-score) [17]: 0.942
glycan array binding signal (z-score) [18]: -0.126
glycan array binding signal (z-score) [19]: 0.016
glycan array binding signal (z-score) [20]: -0.474
glycan array binding signal (z-score) [21]: 0.17
glycan array binding signal (z-score) [22]: -0.579
glycan array binding signal (z-score) [23]: -0.32
glycan array binding signal (z-score) [24]: -0.285
glycan array binding signal (z-score) (Gal(b1-3)GlcNAc6S): -0.452
glycan array binding signal (z-score) [25]: -0.089
glycan array binding signal (z-score) [26]: -0.204
glycan array binding signal (z-score) [27]: -0.162
glycan array binding signal (z-score) [28]: -0.017
glycan array binding signal (z-score) [29]: -0.637
glycan array binding signal (z-score) [30]: 0.528
glycan array binding signal (z-score) [31]: 1.03
glycan array binding signal (z-score) [32]: 0.367
glycan array binding signal (z-score) [33]: -0.759
glycan array binding signal (z-score) [34]: -0.689
glycan array binding signal (z-score) (Gal(b1-4)Gal): 0.335
glycan array binding signal (z-score) [35]: -0.444
